# Experimental data: the supplement of paper PMC12819154, “High-throughput peptide-centric local stability assay extends protein–ligand identification to membrane proteins, tissues and bacteria” (Nature Structural & Molecular Biology, 2025)
# The chains behind the UniProt entries cited, without tags or fusion partners. Where a name states a change or a piece, a line headed by the entry shows the natural chain unless it says otherwise.
# UniProt Q8NFX7: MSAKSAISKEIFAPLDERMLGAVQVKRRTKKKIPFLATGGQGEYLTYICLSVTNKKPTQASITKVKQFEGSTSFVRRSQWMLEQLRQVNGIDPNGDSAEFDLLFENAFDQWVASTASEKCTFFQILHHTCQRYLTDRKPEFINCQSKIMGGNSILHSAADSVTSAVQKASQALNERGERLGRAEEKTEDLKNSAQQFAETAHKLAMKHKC
# UniProt Q8TAT5: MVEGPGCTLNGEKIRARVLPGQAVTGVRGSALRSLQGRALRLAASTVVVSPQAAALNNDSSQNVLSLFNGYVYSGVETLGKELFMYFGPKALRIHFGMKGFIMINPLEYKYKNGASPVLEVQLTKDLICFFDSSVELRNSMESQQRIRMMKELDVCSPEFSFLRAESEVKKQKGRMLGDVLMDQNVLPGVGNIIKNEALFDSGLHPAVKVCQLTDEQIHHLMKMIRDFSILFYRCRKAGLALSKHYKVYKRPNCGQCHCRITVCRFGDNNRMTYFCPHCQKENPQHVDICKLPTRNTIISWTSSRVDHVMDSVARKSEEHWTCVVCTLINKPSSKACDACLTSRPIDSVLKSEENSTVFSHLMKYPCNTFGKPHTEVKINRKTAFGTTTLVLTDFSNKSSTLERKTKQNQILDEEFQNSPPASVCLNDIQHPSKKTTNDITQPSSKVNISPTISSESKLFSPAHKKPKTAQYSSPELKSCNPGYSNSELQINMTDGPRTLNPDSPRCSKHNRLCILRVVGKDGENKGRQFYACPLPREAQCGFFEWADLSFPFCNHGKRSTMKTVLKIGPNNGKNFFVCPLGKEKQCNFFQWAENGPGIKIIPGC
# UniProt Q8NBZ0, whole entry: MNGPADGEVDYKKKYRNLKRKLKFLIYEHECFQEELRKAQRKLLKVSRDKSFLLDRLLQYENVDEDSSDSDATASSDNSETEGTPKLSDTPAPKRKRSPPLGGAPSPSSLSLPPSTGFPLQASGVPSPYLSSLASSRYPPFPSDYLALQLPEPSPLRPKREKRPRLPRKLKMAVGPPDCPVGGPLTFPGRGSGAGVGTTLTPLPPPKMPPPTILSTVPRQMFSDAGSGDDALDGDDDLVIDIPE
# UniProt Q8NHY2, whole entry: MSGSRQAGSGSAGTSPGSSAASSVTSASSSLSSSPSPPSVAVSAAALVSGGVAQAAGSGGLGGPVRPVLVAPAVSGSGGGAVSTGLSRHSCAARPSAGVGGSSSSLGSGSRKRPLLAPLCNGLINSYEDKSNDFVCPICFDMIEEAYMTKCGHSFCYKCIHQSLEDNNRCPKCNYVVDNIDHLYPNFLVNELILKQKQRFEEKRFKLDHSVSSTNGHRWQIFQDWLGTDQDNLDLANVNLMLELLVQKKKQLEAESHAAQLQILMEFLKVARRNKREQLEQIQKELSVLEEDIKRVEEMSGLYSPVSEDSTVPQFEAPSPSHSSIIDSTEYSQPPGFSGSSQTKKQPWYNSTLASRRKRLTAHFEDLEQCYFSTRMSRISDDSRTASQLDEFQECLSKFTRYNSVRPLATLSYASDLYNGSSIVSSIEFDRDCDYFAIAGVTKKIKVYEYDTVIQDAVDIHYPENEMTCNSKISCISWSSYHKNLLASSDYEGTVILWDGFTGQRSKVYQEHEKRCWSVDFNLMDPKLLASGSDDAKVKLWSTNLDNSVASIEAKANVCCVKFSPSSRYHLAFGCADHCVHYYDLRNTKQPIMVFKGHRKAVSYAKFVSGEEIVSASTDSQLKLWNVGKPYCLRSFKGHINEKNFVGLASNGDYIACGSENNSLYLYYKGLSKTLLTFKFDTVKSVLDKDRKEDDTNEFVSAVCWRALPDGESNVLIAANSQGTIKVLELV
# UniProt Q8N6I1: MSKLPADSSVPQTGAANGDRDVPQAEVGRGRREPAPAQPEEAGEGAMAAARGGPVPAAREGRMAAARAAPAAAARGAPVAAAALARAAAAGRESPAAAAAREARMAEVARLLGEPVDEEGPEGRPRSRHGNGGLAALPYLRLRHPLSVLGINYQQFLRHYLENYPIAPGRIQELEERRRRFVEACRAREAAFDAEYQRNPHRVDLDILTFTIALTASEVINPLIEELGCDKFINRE
# UniProt Q8TAP9: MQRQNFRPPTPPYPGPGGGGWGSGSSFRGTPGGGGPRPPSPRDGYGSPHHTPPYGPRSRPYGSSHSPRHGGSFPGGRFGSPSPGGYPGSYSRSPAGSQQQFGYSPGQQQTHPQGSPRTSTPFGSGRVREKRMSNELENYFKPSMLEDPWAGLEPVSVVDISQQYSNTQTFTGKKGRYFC
# UniProt Q8NB15: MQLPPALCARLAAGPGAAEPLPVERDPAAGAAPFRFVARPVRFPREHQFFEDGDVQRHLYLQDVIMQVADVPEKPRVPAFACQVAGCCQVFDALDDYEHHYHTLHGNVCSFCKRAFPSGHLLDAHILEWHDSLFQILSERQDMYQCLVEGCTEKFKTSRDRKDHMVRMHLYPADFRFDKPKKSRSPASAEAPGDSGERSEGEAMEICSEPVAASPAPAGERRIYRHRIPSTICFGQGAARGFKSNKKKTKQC
# UniProt Q8NBM4: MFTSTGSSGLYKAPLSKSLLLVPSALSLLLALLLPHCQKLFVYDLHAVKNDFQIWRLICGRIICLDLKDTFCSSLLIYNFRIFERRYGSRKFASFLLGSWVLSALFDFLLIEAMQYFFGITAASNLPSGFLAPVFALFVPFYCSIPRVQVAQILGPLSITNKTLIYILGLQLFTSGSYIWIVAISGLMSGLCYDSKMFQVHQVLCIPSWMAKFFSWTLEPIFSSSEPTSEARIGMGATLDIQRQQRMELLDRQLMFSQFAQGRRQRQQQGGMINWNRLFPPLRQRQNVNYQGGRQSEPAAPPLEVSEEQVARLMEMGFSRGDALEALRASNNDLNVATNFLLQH
# UniProt Q8N8A2: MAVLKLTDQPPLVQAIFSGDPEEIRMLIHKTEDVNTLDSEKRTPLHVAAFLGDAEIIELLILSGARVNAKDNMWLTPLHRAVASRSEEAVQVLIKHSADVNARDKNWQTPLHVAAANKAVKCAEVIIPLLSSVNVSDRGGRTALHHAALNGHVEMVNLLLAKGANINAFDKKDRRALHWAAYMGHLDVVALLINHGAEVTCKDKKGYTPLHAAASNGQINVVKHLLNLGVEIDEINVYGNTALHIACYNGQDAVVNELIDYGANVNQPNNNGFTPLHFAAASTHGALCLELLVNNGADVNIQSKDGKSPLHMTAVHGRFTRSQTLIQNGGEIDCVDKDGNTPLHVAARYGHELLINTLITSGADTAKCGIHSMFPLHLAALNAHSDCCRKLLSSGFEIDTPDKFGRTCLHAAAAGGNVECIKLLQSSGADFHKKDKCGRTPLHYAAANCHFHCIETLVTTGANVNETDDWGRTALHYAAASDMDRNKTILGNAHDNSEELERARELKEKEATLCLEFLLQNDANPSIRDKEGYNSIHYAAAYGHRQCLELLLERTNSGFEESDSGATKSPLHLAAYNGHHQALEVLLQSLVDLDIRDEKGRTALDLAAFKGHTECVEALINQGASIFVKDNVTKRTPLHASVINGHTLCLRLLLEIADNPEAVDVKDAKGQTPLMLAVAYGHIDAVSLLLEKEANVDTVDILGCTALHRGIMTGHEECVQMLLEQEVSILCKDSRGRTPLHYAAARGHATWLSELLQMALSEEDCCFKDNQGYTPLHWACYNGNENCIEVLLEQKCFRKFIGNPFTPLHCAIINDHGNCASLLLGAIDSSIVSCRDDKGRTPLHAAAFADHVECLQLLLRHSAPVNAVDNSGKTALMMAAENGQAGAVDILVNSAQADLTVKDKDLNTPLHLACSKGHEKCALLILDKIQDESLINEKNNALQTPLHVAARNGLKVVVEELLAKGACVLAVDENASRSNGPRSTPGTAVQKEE
# The list shows a part of the results. Most entries show no effect beyond the scatter of the controls.
# Compound: CN[C@@H]1C[C@H]2O[C@@](C)([C@@H]1OC)n1c3ccccc3c3c4c(c5c6ccccc6n2c5c31)C(=O)NC4 [staurosporine]
# Experiment: log2 fold change of tryptic peptide abundance, ligand vs vehicle (limited proteolysis) (log2 ratio); higher = more trypsin-susceptible (destabilized)
# Settings: ligand concentration: 20 uM; sample: K562 cleared lysate; digestion: 4 min, 22 C (HT-PELSA RT4min, Orbitrap Astral)
row,Target,log2 fold change
1,"STXBP6 (peptide sequence: NSAQQFAETAHK, peptide start residue: 192) (UniProt Q8NFX7)",0.725
2,"UniProt Q8TAT5 (peptide sequence: VDHVMDSVAR, peptide start residue: 306)",0.698
3,"INO80E (peptide sequence: MAVGPPDCPVGGPLTFPGR, peptide start residue: 172) (UniProt Q8NBZ0)",-0.412
4,"UniProt Q8NHY2 (peptide sequence: KRPLLAPLCNGLINSYEDK, peptide start residue: 112)",-0.336
5,"UniProt Q8N6I1 (peptide sequence: HYLENYPIAPGR, peptide start residue: 159)",0.269
6,"UniProt Q8TAP9 (peptide sequence: SPAGSQQQFGYSPGQQQTHPQGSPR, peptide start residue: 93)",-0.23
7,"ZNF511 (peptide sequence: HLYLQDVIMQVADVPEKPR, peptide start residue: 58) (UniProt Q8NB15)",0.409
8,"UBAC2 (peptide sequence: QLMFSQFAQGR, peptide start residue: 253) (UniProt Q8NBM4)",-0.24
9,"ANKRD44 (peptide sequence: HSADVNAR, peptide start residue: 96) (UniProt Q8N8A2)",0.599
